Test results reported in the supplement of paper PMC10849652.
This is one part of the list.

Sequences of proteins named here, by UniProt entry; tags and fusion partners are left off. A change or cut given only in a name is not applied to a line headed by its entry.
UniProt Q9NVA4: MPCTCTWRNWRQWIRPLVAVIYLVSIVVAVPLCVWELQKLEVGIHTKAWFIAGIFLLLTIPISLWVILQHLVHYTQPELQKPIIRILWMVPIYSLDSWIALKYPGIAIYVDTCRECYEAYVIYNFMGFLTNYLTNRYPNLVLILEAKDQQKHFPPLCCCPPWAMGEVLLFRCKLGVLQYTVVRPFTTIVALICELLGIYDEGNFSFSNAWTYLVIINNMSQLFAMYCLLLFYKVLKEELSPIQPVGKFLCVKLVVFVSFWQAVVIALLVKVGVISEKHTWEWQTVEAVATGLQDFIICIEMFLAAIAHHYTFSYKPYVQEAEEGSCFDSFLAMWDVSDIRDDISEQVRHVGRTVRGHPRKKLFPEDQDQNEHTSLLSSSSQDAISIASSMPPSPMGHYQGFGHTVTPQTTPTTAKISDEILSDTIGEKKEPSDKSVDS
UniProt O75204: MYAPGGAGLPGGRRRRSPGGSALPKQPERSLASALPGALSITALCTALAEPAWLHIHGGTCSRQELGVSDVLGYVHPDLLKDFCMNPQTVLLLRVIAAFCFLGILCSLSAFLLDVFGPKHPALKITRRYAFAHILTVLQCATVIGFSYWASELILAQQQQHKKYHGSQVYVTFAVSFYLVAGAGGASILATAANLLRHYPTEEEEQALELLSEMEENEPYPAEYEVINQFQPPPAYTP
UniProt Q12767: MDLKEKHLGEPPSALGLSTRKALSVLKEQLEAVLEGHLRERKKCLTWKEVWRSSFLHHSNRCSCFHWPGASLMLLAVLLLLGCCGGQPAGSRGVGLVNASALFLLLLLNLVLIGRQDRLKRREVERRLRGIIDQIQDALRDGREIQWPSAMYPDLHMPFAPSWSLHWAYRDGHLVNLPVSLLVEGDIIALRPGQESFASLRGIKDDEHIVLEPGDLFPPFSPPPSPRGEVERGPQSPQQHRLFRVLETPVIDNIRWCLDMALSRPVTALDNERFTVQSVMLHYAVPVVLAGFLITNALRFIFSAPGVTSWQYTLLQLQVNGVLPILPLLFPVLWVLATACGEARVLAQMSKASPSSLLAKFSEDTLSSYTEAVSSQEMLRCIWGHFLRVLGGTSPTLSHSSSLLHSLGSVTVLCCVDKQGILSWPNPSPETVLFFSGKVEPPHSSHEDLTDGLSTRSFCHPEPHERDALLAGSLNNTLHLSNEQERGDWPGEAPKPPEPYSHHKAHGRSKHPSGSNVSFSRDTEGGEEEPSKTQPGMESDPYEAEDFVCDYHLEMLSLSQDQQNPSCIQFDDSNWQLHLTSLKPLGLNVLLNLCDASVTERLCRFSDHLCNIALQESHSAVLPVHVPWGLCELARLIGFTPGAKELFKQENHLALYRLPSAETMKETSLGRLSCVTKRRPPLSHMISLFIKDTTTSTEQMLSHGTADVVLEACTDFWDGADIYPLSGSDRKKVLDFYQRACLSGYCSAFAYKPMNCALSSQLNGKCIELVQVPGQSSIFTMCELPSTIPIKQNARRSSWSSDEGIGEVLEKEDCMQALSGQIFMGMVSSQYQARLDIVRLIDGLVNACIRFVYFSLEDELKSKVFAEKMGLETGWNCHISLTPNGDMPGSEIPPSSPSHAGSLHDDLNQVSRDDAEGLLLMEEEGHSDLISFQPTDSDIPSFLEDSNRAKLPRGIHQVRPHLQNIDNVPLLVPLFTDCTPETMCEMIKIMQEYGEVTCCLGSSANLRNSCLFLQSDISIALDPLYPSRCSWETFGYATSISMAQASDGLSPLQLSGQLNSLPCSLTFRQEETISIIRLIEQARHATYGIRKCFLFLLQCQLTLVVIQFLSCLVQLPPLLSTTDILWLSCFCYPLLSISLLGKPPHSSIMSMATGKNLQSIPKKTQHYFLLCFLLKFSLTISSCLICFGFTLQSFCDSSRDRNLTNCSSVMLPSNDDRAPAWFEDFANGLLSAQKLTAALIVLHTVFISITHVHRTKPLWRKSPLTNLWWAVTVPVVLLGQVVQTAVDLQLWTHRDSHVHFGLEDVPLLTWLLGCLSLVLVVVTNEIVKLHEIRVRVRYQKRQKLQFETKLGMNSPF
UniProt O94876, whole entry, looked up: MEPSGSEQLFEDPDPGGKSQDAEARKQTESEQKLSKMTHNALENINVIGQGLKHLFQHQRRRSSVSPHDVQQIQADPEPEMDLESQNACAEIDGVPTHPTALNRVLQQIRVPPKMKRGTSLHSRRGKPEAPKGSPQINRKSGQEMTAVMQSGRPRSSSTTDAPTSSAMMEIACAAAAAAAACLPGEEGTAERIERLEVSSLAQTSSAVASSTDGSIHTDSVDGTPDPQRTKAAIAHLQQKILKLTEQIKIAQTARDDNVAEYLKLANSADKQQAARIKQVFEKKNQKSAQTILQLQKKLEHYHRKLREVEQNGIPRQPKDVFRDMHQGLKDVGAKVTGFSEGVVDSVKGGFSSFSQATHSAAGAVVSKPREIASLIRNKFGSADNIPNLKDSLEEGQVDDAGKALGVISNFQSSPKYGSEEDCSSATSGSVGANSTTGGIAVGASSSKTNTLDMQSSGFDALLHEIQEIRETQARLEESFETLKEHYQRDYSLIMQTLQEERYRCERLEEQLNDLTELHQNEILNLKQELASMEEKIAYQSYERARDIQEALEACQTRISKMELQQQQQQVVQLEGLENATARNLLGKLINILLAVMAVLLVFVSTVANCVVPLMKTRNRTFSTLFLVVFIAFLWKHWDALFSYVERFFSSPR
UniProt Q5T292: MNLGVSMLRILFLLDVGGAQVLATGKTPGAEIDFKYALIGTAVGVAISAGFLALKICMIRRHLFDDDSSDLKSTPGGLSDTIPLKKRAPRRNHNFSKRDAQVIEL
UniProt Q9ULS5: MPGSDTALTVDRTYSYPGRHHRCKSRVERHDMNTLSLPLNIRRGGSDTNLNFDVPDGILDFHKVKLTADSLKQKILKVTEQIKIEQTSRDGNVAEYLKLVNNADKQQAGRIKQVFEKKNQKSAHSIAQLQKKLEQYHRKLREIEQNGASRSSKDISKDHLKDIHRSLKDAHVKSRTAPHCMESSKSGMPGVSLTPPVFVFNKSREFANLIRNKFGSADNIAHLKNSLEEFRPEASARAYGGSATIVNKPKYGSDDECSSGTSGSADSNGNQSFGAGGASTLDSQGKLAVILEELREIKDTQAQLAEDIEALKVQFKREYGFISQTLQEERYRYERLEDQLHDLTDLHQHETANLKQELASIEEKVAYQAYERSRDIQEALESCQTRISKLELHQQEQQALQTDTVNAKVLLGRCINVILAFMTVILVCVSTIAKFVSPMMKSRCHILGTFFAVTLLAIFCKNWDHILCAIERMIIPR
UniProt Q03169: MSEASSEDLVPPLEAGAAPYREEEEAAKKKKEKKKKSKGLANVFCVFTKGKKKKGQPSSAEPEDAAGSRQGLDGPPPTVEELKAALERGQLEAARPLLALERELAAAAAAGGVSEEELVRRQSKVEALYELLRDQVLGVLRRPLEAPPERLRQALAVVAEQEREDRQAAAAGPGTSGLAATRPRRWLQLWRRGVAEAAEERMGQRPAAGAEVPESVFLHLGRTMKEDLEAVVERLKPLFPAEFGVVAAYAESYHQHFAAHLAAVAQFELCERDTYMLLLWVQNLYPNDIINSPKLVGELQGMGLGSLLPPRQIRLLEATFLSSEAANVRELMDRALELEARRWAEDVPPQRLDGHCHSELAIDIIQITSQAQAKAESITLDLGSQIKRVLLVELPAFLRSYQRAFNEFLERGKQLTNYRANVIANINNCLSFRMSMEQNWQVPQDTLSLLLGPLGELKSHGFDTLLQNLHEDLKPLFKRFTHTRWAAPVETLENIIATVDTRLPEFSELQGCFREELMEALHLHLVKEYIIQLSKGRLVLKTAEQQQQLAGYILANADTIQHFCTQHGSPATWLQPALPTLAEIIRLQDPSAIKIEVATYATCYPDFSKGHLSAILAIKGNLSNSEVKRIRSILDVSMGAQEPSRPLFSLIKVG
UniProt Q6UW68: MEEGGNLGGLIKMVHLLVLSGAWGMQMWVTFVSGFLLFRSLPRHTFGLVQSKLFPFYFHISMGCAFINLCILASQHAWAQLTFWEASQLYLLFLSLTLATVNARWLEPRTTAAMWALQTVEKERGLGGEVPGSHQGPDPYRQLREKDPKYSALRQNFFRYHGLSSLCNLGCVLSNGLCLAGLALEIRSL
UniProt Q5SNT2: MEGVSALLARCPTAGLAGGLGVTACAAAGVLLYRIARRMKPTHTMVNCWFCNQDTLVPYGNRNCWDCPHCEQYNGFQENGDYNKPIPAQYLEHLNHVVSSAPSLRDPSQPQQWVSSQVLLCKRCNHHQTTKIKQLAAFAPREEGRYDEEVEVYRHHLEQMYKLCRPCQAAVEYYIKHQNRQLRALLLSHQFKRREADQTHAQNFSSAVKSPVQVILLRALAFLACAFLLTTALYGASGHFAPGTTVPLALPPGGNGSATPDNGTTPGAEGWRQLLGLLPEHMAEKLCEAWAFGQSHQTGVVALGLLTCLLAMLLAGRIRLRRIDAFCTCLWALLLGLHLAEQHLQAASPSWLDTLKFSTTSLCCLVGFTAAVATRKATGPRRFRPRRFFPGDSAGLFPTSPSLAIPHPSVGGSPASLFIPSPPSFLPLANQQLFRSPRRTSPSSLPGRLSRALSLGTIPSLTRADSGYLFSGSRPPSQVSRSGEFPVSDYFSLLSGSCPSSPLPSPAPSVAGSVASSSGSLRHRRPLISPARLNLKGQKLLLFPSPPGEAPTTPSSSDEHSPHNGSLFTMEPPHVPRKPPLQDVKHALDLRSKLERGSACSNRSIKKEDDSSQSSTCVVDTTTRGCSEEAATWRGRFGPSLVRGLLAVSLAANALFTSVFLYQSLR
UniProt Q9Y2Y6: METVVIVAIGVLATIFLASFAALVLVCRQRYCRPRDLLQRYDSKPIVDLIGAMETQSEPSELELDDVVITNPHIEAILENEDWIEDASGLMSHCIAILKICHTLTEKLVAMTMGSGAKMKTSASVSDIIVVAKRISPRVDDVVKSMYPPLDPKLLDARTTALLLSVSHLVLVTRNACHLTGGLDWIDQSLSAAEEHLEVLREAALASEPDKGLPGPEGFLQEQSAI
UniProt O00206, whole entry, looked up: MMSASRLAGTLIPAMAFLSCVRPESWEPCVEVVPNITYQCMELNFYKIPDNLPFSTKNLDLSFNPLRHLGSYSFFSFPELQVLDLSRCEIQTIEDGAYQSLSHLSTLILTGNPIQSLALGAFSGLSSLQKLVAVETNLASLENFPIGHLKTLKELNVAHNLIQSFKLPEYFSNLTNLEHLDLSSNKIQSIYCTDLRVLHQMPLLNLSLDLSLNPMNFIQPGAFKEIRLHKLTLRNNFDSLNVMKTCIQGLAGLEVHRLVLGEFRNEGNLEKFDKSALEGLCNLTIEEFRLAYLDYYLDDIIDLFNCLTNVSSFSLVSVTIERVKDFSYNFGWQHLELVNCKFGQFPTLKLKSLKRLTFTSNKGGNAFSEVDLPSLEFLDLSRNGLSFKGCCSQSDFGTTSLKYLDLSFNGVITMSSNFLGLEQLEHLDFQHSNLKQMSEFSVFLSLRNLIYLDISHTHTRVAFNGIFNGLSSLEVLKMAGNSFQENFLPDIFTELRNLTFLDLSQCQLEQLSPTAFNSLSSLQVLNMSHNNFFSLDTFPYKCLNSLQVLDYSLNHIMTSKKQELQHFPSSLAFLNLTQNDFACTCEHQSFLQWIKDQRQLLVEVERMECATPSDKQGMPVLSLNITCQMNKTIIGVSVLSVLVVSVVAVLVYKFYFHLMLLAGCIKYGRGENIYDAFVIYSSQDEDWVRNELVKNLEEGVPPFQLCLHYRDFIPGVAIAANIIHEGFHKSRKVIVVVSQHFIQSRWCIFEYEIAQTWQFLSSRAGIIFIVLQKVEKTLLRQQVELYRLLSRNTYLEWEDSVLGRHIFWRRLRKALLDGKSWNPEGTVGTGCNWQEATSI
UniProt Q5T4D3: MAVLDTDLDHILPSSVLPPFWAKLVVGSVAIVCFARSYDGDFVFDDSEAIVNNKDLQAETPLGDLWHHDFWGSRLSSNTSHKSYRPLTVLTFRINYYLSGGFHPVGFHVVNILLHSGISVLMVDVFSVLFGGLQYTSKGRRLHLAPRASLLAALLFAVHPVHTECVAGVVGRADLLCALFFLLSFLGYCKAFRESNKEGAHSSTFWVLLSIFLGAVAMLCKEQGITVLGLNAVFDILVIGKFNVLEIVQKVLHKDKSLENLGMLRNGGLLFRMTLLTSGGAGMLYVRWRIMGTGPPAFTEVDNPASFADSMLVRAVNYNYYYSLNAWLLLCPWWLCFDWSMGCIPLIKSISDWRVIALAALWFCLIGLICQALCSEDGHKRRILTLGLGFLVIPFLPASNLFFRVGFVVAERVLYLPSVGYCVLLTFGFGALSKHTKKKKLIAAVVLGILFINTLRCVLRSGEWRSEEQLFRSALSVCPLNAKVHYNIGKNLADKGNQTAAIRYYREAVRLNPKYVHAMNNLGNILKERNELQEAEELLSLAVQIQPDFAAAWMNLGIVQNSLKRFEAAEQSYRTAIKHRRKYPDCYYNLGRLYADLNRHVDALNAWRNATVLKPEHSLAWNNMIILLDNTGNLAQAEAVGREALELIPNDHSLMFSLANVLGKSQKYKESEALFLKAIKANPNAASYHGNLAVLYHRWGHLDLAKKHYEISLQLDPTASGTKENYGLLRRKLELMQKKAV

compound: C1=CC2=C(C=CC(=C2)/C=C\3/C(=O)NC(=NCC4=CC=CS4)S3)N=C1; experiment: log2 fold change, soluble protein after heating vs DMSO (PISA); higher = thermal stabilisation; K562 cells, 10 uM, 30 min; active = over 0.2 and 3.5 SD of the protein, either way, in both replicates (recomputed)
Procedure, shortened: (§1)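 K562 cells at 2×10^6 cells/mL were treated with 10 μM compound for 30 min. Aliquots were heated for 3 min across 48°C-58°C, pooled, and extracted in PBS with 0.5% NP-40 at 4°C; soluble protein was the supernatant after 21,000xg for 90 min. Soluble protein was quantified by TMTpro 16plex LC-MS/MS with channel sums equalised, and reported as log2 fold change in thermal stability against DMSO controls, with values from duplicates.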

log2 fold change, inactive:
TMEM184C (UniProt Q9NVA4) -0.05
TMEM59 (UniProt Q9BXS4) -0.013
TMSB4X (UniProt P62328) -0.181
TMEM143 (UniProt Q96AN5) -0.092
TMEM175 (UniProt Q9BSA9) -0.019
TMEM79 (UniProt Q9BSE2) 0.07
TMEM131 (UniProt Q92545) -0.052
TLE5 isoform 2 (UniProt Q08117) 0.032
TMEM127 (UniProt O75204) 0.175
TMEM94 isoform 2 (UniProt Q12767) 0.025
TMEM260 (UniProt Q9NX78) -0.051
TMCC1 (UniProt O94876) 0.005
TMEM50A (UniProt O95807) 0.129
TMCC2 (UniProt O75069) 0.081
TMEM273 isoform 2 (UniProt Q5T292) 0.218

compound: C1=CC2=NC=CN=C2C=C1/C=C/3\C(=O)NC(=O)S3; experiment: as above
Procedure, shortened: as §1

log2 fold change, inactive:
TMEM8A (UniProt Q9HCN3) 0.02
TMCC3 (UniProt Q9ULS5) 0.08
TNFAIP2 (UniProt Q03169) -0.059
TMEM184C (UniProt Q9NVA4) -0.027
TMSB4X (UniProt P62328) -0.388
TMEM184B (UniProt Q9Y519) 0.114
TMEM79 (UniProt Q9BSE2) 0.153
TMEM35B (UniProt Q8NCS4) -0.06
TMEM159 isoform 2 (UniProt Q96B96) -0.094
TMEM106C (UniProt Q9BVX2) -0.041
TMEM205 (UniProt Q6UW68) -0.034
TMEM167B (UniProt Q9NRX6) 0.057
TMEM201 (UniProt Q5SNT2) 0.127
TMEM50A (UniProt O95807) 0.024
TMEM98 (UniProt Q9Y2Y6) 0.074
TLR4 (UniProt O00206) -0.019
TMTC4 isoform 3 (UniProt Q5T4D3) 0.11
